# From PubChem BioAssay (EPA / NIEHS)
# The chains behind the UniProt entries cited, without tags or fusion partners.
# UniProt P04637, whole entry, looked up: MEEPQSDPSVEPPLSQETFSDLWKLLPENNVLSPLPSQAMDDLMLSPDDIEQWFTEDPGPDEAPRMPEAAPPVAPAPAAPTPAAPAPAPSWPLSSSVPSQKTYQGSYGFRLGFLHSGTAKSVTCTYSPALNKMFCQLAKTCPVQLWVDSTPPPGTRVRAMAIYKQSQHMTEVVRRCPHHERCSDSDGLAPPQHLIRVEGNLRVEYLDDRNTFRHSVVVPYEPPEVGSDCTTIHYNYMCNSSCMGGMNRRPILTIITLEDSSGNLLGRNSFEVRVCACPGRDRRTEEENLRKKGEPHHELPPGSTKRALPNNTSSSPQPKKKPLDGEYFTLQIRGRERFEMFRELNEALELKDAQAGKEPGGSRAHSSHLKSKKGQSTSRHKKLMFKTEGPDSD
# Values joined by “and” are separate entries in the source; they are usually repeats but may differ in a detail not shown here. Equal entries are not always repeated. The inconclusive results got no clear call from the source; some entries with a clear call stand among them for comparison. A potency beside an inconclusive call is a rough fit, not a confirmed value. Active and inactive are the calls of the source. How the source made its calls: active means hit-call score of the fitted dose curve at least 0.9, where 1 is the maximum; inconclusive means response in the unintended direction; inactive means score below 0.9.
# Test system: not listed separately
# Experiment: TOX21_p53_BLA_p4_viability: Viability Assessment in the Tox21 HCT-116 p53 Agonism Beta-lactamase Assay, Phase 4 (AID 2283597);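 further: hits lower the luminescence signal meaning cytotoxicity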
# Outline: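 We seeded HCT116 p53 reporter cells at 4000/well and waited 5 h. We then added compounds in DMSO at a 217-fold dilution and incubated for 16 h. Viability was read as CellTiter-Glo luminescence after 30 min at RT.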
SMILES,outcome,AC50
CNCCCN1c2ccccc2CCc2ccccc21,inactive,
NC(=O)Oc1ccc(Cc2ccccc2)cc1,inactive,
CO[C@@]1(NC(=O)CSC[C@@H](N)C(=O)O)C(=O)N2C(C(=O)O)=C(CSc3nnnn3C)CS[C@@H]21,,inconclusive: 41.3 µM
Cc1cnc(C(=O)O)c[n+]1[O-],,inconclusive: 23 µM
O=C1NC2CCCCN2C12CCN(CCCN1c3ccccc3CCc3ccc(Cl)cc31)CC2 (stereo not drawn),,active: 43 µM
ClC/C=C\CCl,,inconclusive: 47.7 µM
CC[C@]12CCCN3CCc4c(n(c5ccccc45)C(=O)C1)[C@@H]32,,inconclusive: 1.39 µM
CN1[C@@H]2CC[C@H]1CC(OC(=O)c1c[nH]c3ccccc13)C2 (stereo partly drawn),,inconclusive: 10 µM
CC1(C)[C@@H](O[C@H]2O[C@H](C(=O)O)[C@@H](O)[C@H](O)[C@H]2O[C@@H]2O[C@H](C(=O)O)[C@@H](O)[C@H](O)[C@H]2O)CC[C@]2(C)[C@H]3C(=O)C=C4[C@@H]5C[C@@](C)(C(=O)O)CC[C@]5(C)CC[C@@]4(C)[C@]3(C)CC[C@@H]12,,inconclusive: 35.3 µM and inconclusive: 23 µM and inconclusive: 484 nM
CC(C)=CCC/C(C)=C/CC/C(C)=C/CC/C=C(\C)CC/C=C(\C)CCC=C(C)C,,inconclusive: 23 µM
OC(CCCN1CCCCC1)(c1ccccc1)c1ccccc1,inactive,
CN[C@H]1CCc2cc(OC)c(OC)c(OC)c2-c2ccc(OC)c(=O)cc21,,inconclusive: 0.621 µM
OC1CCCc2ccccc21 (stereo not drawn),,inconclusive: 46.5 µM
COc1ccc(-c2nc3ccc(C4=NNC(=O)CC4C)cc3[nH]2)cc1 (stereo not drawn),,inconclusive: 23 µM
Clc1cc(Cl)nc(Cl)n1,,inconclusive: 46.6 µM
O=C1O[C@H](CO)[C@@H](O)[C@H](O)[C@H]1O,,inconclusive: 23 µM
Cc1cccc(O)c1N,,inconclusive: 46.5 µM
CCOc1nc2cccc(C(=O)O)c2n1Cc1ccc(-c2ccccc2-c2nn[nH]n2)cc1,,inconclusive: 23 µM
O=Cc1c2ccccc2c(Cl)c2ccccc12,,inconclusive: 0.0986 µM
CCNC(=O)NCCCOc1cccc(CN2CCCCC2)c1,,inconclusive: 1.09 µM

# Molecules above that have four or more nitrogen atoms, in the order listed:
SMILES,outcome,AC50
CO[C@@]1(NC(=O)CSC[C@@H](N)C(=O)O)C(=O)N2C(C(=O)O)=C(CSc3nnnn3C)CS[C@@H]21,,inconclusive: 41.3 µM
O=C1NC2CCCCN2C12CCN(CCCN1c3ccccc3CCc3ccc(Cl)cc31)CC2 (stereo not drawn),,active: 43 µM
COc1ccc(-c2nc3ccc(C4=NNC(=O)CC4C)cc3[nH]2)cc1 (stereo not drawn),,inconclusive: 23 µM
CCOc1nc2cccc(C(=O)O)c2n1Cc1ccc(-c2ccccc2-c2nn[nH]n2)cc1,,inconclusive: 23 µM

# Going on with the list.

SMILES,outcome,AC50
O=C1OC(O)C(C(Cl)Cl)=C1Cl (stereo not drawn),,active: 12.7 µM
OC(CN1CCCCC1)c1cc(-c2ccccc2)on1 (stereo not drawn),,inconclusive: 23 µM
COc1ccc(CCNCC(O)COc2cccc(C)c2)cc1OC (stereo not drawn),inactive,
C=C1CC[C@H](O)C/C1=C/C=C1\CCC[C@]2(C)[C@@H]([C@H](C)CC[C@@H](O)C(C)(C)O)CC[C@@H]12,,active: 17.9 µM
O=C(c1ccc(O)cc1)c1ccc(Cl)cc1,,inconclusive: 46.9 µM
CC1=C(C/C=C(\C)CCC[C@H](C)CCC[C@H](C)CCCC(C)C)C(=O)c2ccccc2C1=O,,inconclusive: 23 µM
COc1cnc(NS(=O)(=O)c2ccc(N)cc2)nc1,,inconclusive: 10.3 µM
CC(C)(C)NCC(O)COc1cccc2c1CCC(=O)N2 (stereo not drawn),,inconclusive: 3.54e-05 µM
CNC(=O)N(c1ccccc1)c1ccccc1,,inconclusive: 0.0186 µM
CC(=O)OCC(=O)[C@@]1(O)CC[C@H]2[C@@H]3C[C@H](C)C4=CC(=O)C=C[C@]4(C)[C@H]3[C@@H](O)C[C@@]21C,inactive,
Cc1ccc(O)c([C@H](CCN(C(C)C)C(C)C)c2ccccc2)c1,,inconclusive: 3.29 µM
O=C(O)/C=C/c1cnc[nH]1,inactive,
Cc1ccnc2c1NC(=O)c1cccnc1N2C1CC1,inactive,
CCc1ccc(Br)cc1,inactive,
O=C(O)CCc1nc(-c2ccccc2)c(-c2ccccc2)o1,,inconclusive: 6.56 µM
Cc1cccc2c1cc1ccc3cccc4ccc2c1c34,inactive,
Cc1nccn1CC1CCc2c(c3ccccc3n2C)C1=O (stereo not drawn),inactive,
O=C(O)c1cc(O)c2c(c1)[O][Bi][O]2,inactive,
Cc1cccc(C)c1NC(=O)c1cc(S(N)(=O)=O)c(Cl)cc1O,,inconclusive: 23 µM

# Target: Cellular tumor antigen p53 (Homo sapiens) (UniProt P04637)
# Experiment: TOX21_p53_BLA_p5_ratio: Tox21 HCT-116 p53 Agonism Beta-lactamase Assay, Ratio, Phase 5 (AID 2283599)
# Outline: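 HCT-116 cells carrying a p53-inducible beta-lactamase reporter were seeded at 4000 cells/well and dosed after 5 h with compound in DMSO (217-fold dilution). After 16 h at 37C, CCF4-AM substrate was added for 2 h, and the 460/530 nm emission ratio was scored as gain-of-signal versus DMSO.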
SMILES,AC50,outcome
CNCCCN1c2ccccc2CCc2ccccc21,inconclusive: 10.3 µM,
NC(=O)Oc1ccc(Cc2ccccc2)cc1,inconclusive: 23 µM,
CO[C@@]1(NC(=O)CSC[C@@H](N)C(=O)O)C(=O)N2C(C(=O)O)=C(CSc3nnnn3C)CS[C@@H]21,,inactive
Cc1cnc(C(=O)O)c[n+]1[O-],inconclusive: 23 µM,
O=C1NC2CCCCN2C12CCN(CCCN1c3ccccc3CCc3ccc(Cl)cc31)CC2 (stereo not drawn),inconclusive: 23 µM,
ClC/C=C\CCl,inconclusive: 47.7 µM,
CC[C@]12CCCN3CCc4c(n(c5ccccc45)C(=O)C1)[C@@H]32,active: 5.58 µM,
CN1[C@@H]2CC[C@H]1CC(OC(=O)c1c[nH]c3ccccc13)C2 (stereo partly drawn),inconclusive: 23 µM,
CC1(C)[C@@H](O[C@H]2O[C@H](C(=O)O)[C@@H](O)[C@H](O)[C@H]2O[C@@H]2O[C@H](C(=O)O)[C@@H](O)[C@H](O)[C@H]2O)CC[C@]2(C)[C@H]3C(=O)C=C4[C@@H]5C[C@@](C)(C(=O)O)CC[C@]5(C)CC[C@@]4(C)[C@]3(C)CC[C@@H]12,,inactive
CC(C)=CCC/C(C)=C/CC/C(C)=C/CC/C=C(\C)CC/C=C(\C)CCC=C(C)C,inconclusive: 23 µM,
OC(CCCN1CCCCC1)(c1ccccc1)c1ccccc1,inconclusive: 40.1 µM,
CN[C@H]1CCc2cc(OC)c(OC)c(OC)c2-c2ccc(OC)c(=O)cc21,,inactive
OC1CCCc2ccccc21 (stereo not drawn),inconclusive: 46.5 µM,
COc1ccc(-c2nc3ccc(C4=NNC(=O)CC4C)cc3[nH]2)cc1 (stereo not drawn),active: 16.3 µM,
Clc1cc(Cl)nc(Cl)n1,inconclusive: 34.3 µM,
O=C1O[C@H](CO)[C@@H](O)[C@H](O)[C@H]1O,,inactive
Cc1cccc(O)c1N,,inactive
CCOc1nc2cccc(C(=O)O)c2n1Cc1ccc(-c2ccccc2-c2nn[nH]n2)cc1,active: 44.3 µM,
O=Cc1c2ccccc2c(Cl)c2ccccc12,inconclusive: 23.1 µM,
CCNC(=O)NCCCOc1cccc(CN2CCCCC2)c1,inconclusive: 34.4 µM,

SMILES,AC50,outcome
O=C1OC(O)C(C(Cl)Cl)=C1Cl (stereo not drawn),active: 25.6 µM,
OC(CN1CCCCC1)c1cc(-c2ccccc2)on1 (stereo not drawn),inconclusive: 23 µM,
COc1ccc(CCNCC(O)COc2cccc(C)c2)cc1OC (stereo not drawn),inconclusive: 23 µM,
C=C1CC[C@H](O)C/C1=C/C=C1\CCC[C@]2(C)[C@@H]([C@H](C)CC[C@@H](O)C(C)(C)O)CC[C@@H]12,active: 22.5 µM,
O=C(c1ccc(O)cc1)c1ccc(Cl)cc1,active: 74.9 µM,
CC1=C(C/C=C(\C)CCC[C@H](C)CCC[C@H](C)CCCC(C)C)C(=O)c2ccccc2C1=O,inconclusive: 23 µM,
COc1cnc(NS(=O)(=O)c2ccc(N)cc2)nc1,inconclusive: 10.3 µM,
CC(C)(C)NCC(O)COc1cccc2c1CCC(=O)N2 (stereo not drawn),inconclusive: 10.3 µM,
CNC(=O)N(c1ccccc1)c1ccccc1,inconclusive: 46.2 µM,
CC(=O)OCC(=O)[C@@]1(O)CC[C@H]2[C@@H]3C[C@H](C)C4=CC(=O)C=C[C@]4(C)[C@H]3[C@@H](O)C[C@@]21C,,inactive
Cc1ccc(O)c([C@H](CCN(C(C)C)C(C)C)c2ccccc2)c1,inconclusive: 23 µM,
O=C(O)/C=C/c1cnc[nH]1,inconclusive: 46.1 µM,
Cc1ccnc2c1NC(=O)c1cccnc1N2C1CC1,inconclusive: 43.3 µM,
CCc1ccc(Br)cc1,inconclusive: 47.1 µM,
O=C(O)CCc1nc(-c2ccccc2)c(-c2ccccc2)o1,inconclusive: 20.5 µM,
Cc1cccc2c1cc1ccc3cccc4ccc2c1c34,active: 2.33 µM,
Cc1nccn1CC1CCc2c(c3ccccc3n2C)C1=O (stereo not drawn),inconclusive: 23 µM and inconclusive: 10.3 µM,
O=C(O)c1cc(O)c2c(c1)[O][Bi][O]2,inconclusive: 23 µM,
Cc1cccc(C)c1NC(=O)c1cc(S(N)(=O)=O)c(Cl)cc1O,inconclusive: 16.7 µM,
